Results are given in words; binding and its absence hold for the method and conditions named. Binding seen in cells or lysates may run through a third protein. Some entries that bind do so weakly or less than the wild type.
Target: T1, Neuroglobin (UniProt Q9NPG2)
T1 sequence: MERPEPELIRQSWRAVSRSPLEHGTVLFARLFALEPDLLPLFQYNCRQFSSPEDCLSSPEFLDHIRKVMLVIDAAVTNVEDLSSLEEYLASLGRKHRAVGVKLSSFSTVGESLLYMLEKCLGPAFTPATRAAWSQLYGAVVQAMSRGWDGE
Experiment: co-IP; immunoprecipitation with anti-NGB antibodies, MAg25K/Protein A/G beads; cells not given; procedure as in ref. 31

By UniProt entry, the sequences of proteins in these tests, tags left out.
UniProt Q9HC97: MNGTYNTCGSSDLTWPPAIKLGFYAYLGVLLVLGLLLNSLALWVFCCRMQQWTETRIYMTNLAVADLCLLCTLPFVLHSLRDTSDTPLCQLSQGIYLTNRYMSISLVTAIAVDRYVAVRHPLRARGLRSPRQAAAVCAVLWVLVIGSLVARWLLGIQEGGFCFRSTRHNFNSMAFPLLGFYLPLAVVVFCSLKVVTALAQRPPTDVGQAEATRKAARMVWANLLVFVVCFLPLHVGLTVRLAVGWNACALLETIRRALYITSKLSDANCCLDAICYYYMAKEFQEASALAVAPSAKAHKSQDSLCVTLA

**Q.** With “GPR35 (from UniProt Q9HC97 1-309) (receptor)” as the substance, how does the binding read?
**A.** The binding was “binds”.

From publication PMC10067258
